Measurements reported in PubChem BioAssay AID1259308 (NCATS, 2017).
Purpose: 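Genes whose loss raises luciferase production in HEK293 cells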 (primary screen). Cells: human HEK293 embryonic kidney cells stably expressing firefly luciferase (HEK-CMV-Luc2-Hygro). Reagents: single siRNA against human genes, 0.8 pmol siRNA per well. Time to read-out: 72 h. Measured: 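Reporter luminescence and viable-cell signal on separate replicate plates, given as percent of non-targeting control and median/MAD z-scores, plus per-cell luciferase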. Direction: total luciferase, z-score and total luciferase, % of control: higher = more reporter protein produced; luciferase per cell, z-score: higher = more reporter output per viable cell; viable cells, % of control: higher = more viable cells. Hit rule: 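An siRNA counts as active if its total luciferase robust z-score exceeds 3; genes with two or more such siRNAs out of three were retested with fresh siRNAs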. Calls: active = raised luciferase; inactive = no rise.
This is an unselected part of about 59,000 reagents. Of all reagents, about 1,510 (2.6%) were called active. 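Calls use total luciferase alone and ignore viability, so some active siRNAs may act by altering cell number.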 The numbers tell different reagents against one gene apart.

| gene symbol | siRNA no. | total luciferase, z-score | total luciferase, % of control | luciferase per cell, z-score | viable cells, % of control | Outcome |
| --- | --- | --- | --- | --- | --- | --- |
| MBNL1 | 1 | -0.528 | 71.4 | -0.554 | 92.3 | inactive |
| MBNL1 | 2 | -0.311 | 75.7 | -0.783 | 104 | inactive |
| MBNL1 | 3 | 0.704 | 95.9 | 0.179 | 102 | inactive |
| BMS1P9 | 1 | 0.347 | 88.8 | 0.682 | 82.9 | inactive |
| BMS1P9 | 2 | 6.05 | 202 | 2.95 | 104 | active |
| BMS1P9 | 3 | 0.274 | 87.3 | 1.18 | 71.6 | inactive |
| PDE5A | 1 | -0.63 | 69.4 | -0.57 | 90.1 | inactive |
| PDE5A | 2 | -0.132 | 79.3 | -0.423 | 99 | inactive |
| PDE5A | 3 | 1.42 | 110 | 0.83 | 99 | inactive |
| LOC643675 (retired record) | 1 | -0.308 | 75.8 | 0.0897 | 82.7 | inactive |
| LOC643675 (retired record) | 2 | 1.22 | 106 | 1.89 | 72 | inactive |
| LOC643675 (retired record) | 3 | 0.478 | 91.4 | -0.242 | 109 | inactive |
| LCA5 | 1 | -0.703 | 67.9 | -0.246 | 81 | inactive |
| LCA5 | 2 | -0.312 | 75.7 | -0.9 | 107 | inactive |
| LCA5 | 3 | -0.214 | 77.6 | -0.493 | 98.8 | inactive |
| TMEM128 | 1 | -0.0153 | 81.6 | -0.553 | 105 | inactive |
| TMEM128 | 2 | -0.582 | 70.3 | -0.686 | 94.1 | inactive |
| TMEM128 | 3 | -0.121 | 79.5 | 0.936 | 69.4 | inactive |
| TCEAL5 | 1 | -0.491 | 72.1 | 0.48 | 71 | inactive |
| TCEAL5 | 2 | 3.02 | 142 | 3.01 | 71.7 | active |
| TCEAL5 | 3 | -0.235 | 77.2 | 0.0348 | 85.5 | inactive |
| SFT2D2 | 1 | 1.4 | 110 | 1.45 | 83.8 | inactive |
| SFT2D2 | 2 | 0.291 | 87.7 | 0.00602 | 97.8 | inactive |
| SFT2D2 | 3 | -1.63 | 49.4 | -0.637 | 65.3 | inactive |
| LDLRAP1 | 1 | 0.45 | 90.8 | 0.58 | 87.1 | inactive |
| LDLRAP1 | 2 | 0.892 | 99.6 | 0.441 | 99.1 | inactive |
| LDLRAP1 | 3 | -0.508 | 71.8 | 0.119 | 77.7 | inactive |
| CFH | 1 | 1.72 | 116 | 2.04 | 75.8 | inactive |
| CFH | 2 | -1.05 | 61 | -0.28 | 73.3 | inactive |
| CFH | 3 | -0.537 | 71.2 | -0.508 | 91 | inactive |
| S100A4 | 1 | 1.96 | 121 | 1.76 | 85 | inactive |
| S100A4 | 2 | 0.153 | 84.9 | 0.388 | 85.7 | inactive |
| S100A4 | 3 | -1.73 | 47.5 | -1.46 | 78 | inactive |
| PDE3A | 1 | 3.05 | 143 | 4.2 | 52.7 | active |
| PDE3A | 2 | 0.22 | 86.3 | -0.364 | 106 | inactive |
| PDE3A | 3 | -0.447 | 73 | -0.652 | 96.8 | inactive |
| KRTAP3-1 | 1 | 0.619 | 94.2 | 0.316 | 96.9 | inactive |
| KRTAP3-1 | 2 | -0.214 | 77.6 | -0.502 | 99 | inactive |
| KRTAP3-1 | 3 | -0.418 | 73.6 | -0.765 | 101 | inactive |
| TNFAIP6 | 1 | -1.03 | 61.4 | -1.81 | 111 | inactive |
| TNFAIP6 | 2 | -0.614 | 69.7 | -0.224 | 82.6 | inactive |
| TNFAIP6 | 3 | 0.231 | 86.5 | 2.24 | 53.5 | inactive |
| NT5DC2 | 1 | 0.469 | 91.2 | 0.425 | 91.1 | inactive |
| NT5DC2 | 2 | 0.231 | 86.5 | -0.0201 | 97.1 | inactive |
| NT5DC2 | 3 | -0.137 | 79.2 | -0.0277 | 89.1 | inactive |
| MLC1 | 1 | -0.644 | 69.1 | -1.04 | 101 | inactive |
| MLC1 | 2 | -0.406 | 73.8 | -0.858 | 103 | inactive |
| MLC1 | 3 | 1.27 | 107 | 1.65 | 77.5 | inactive |
| ZNF654 | 1 | 0.381 | 89.5 | 0.0759 | 98 | inactive |
| ZNF654 | 2 | 1.48 | 111 | 1.58 | 82.2 | inactive |
| ZNF654 | 3 | 0.0966 | 83.8 | 0.354 | 85.3 | inactive |
| CDK14 | 1 | -2.01 | 41.8 | -0.665 | 55.7 | inactive |
| CDK14 | 2 | 1.53 | 112 | 1.59 | 82.6 | inactive |
| CDK14 | 3 | -0.382 | 74.3 | -0.878 | 105 | inactive |
| NCK1 | 1 | -0.978 | 62.4 | 0.0965 | 68 | inactive |
| NCK1 | 2 | -0.134 | 79.2 | -0.667 | 106 | inactive |
| NCK1 | 3 | -1.4 | 54 | -1.08 | 80.1 | inactive |
| ZNF670 | 1 | 0.873 | 99.2 | 1.37 | 77.3 | inactive |
| ZNF670 | 2 | 1.31 | 108 | 1.17 | 88.7 | inactive |
| ZNF670 | 3 | -2.33 | 35.5 | -1.68 | 61.7 | inactive |
| SLC4A8 | 1 | -0.478 | 72.4 | -0.268 | 86.8 | inactive |
| SLC4A8 | 2 | -0.0114 | 81.7 | 0.329 | 83.7 | inactive |
| SLC4A8 | 3 | -0.822 | 65.5 | -1.35 | 104 | inactive |
| SLC26A2 | 1 | 0.153 | 84.9 | 0.0719 | 93.1 | inactive |
| SLC26A2 | 2 | -0.565 | 70.6 | -1.52 | 118 | inactive |
| SLC26A2 | 3 | -0.523 | 71.5 | -0.224 | 84.7 | inactive |
| PCGF5 | 1 | -1.2 | 58 | -1.38 | 93.1 | inactive |
| PCGF5 | 2 | -0.0999 | 79.9 | -0.245 | 95.2 | inactive |
| PCGF5 | 3 | -0.121 | 79.5 | -0.238 | 94.6 | inactive |
| SUCLG1 | 1 | 0.0509 | 82.9 | 0.148 | 89.1 | inactive |
| SUCLG1 | 2 | -0.773 | 66.5 | -0.678 | 88.8 | inactive |
| SUCLG1 | 3 | -0.422 | 73.5 | -0.284 | 88.5 | inactive |
| SLC23A2 | 1 | 1.32 | 108 | 1.26 | 86.8 | inactive |
| SLC23A2 | 2 | 0.555 | 92.9 | 0.0848 | 102 | inactive |
| SLC23A2 | 3 | -0.185 | 78.2 | 0.149 | 84 | inactive |

Active calls, of those listed so far:
| gene symbol | siRNA no. | total luciferase, z-score | total luciferase, % of control | luciferase per cell, z-score | viable cells, % of control | Outcome |
| --- | --- | --- | --- | --- | --- | --- |
| BMS1P9 | 2 | 6.05 | 202 | 2.95 | 104 | active |
| TCEAL5 | 2 | 3.02 | 142 | 3.01 | 71.7 | active |
| PDE3A | 1 | 3.05 | 143 | 4.2 | 52.7 | active |
